Data: PMC11362043

Target: T1, FtsH5 (Arabidopsis thaliana (endogenous in leaf chloroplast isolate)) (UniProt Q9FH02)
T1 sequence: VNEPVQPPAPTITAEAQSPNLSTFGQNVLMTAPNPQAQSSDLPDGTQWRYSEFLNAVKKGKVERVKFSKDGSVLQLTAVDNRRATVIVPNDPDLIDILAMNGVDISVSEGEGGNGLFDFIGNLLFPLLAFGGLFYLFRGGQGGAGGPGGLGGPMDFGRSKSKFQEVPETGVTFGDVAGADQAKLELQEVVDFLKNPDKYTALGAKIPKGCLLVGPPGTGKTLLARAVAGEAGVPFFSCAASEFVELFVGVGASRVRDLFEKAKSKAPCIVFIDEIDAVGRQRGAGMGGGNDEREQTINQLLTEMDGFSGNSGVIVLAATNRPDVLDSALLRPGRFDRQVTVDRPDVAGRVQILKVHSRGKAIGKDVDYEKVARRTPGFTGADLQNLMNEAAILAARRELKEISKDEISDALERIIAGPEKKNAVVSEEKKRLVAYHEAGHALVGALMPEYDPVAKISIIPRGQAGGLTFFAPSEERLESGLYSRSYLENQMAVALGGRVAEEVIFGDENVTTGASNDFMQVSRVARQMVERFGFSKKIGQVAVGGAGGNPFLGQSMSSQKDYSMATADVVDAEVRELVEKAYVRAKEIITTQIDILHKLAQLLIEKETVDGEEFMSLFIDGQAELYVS
Assay: cross-linking; 1 mM DSBU (MS-cleavable) directly after cell disruption and again after chloroplast isolation; 1% SDS; lpBN-PAGE fractions digested with trypsin; interlinks identified by MS (MaxLynx); plants acclimated to LL, GL, EL or HL (20, 120, 600, 1000 µmol m^-2 s^-1)

- binding: no binding
Substance: FtsH5 interacting protein (FIP5)

Results are given in words; binding and its absence hold for the method and conditions named. Binding seen in cells or lysates may run through a third protein.
